Data from patent US10071034B2, “Solvent compositions” (Amyris, Inc., priority 2014, dated 2018).

Key:
[1] = White lithium grease removal testing, Gardner Straight-Line Washability Machine; conditions: 20 mL solvent; for Avg. # of Cycles: cycles required to achieve the percentage removed, run until approx. 70-90% of soil removed; for Avg. % Removed: white lithium grease removed, image analysis
[2] = Tar soil removal by solvent candidates; conditions: 10 mL/0.5 grams dried tar, shaken 10 minutes, estimated visually, FIG. 12

Row | Compound | Avg. # of Cycles [1] | Avg. % Removed [1] [%] | tar soil removed [2]
1 | CCOC(=O)C(C)O (centres unmarked) [Ethyl lactate] | 47 | 64.70 | –
2 | C=C(C)[C@H]1CC=C(C)CC1 [d-limonene] | 7 | 85.4 | –
3 | farnesene | – | – | about 80%
